Some of the results follow.
Experiments:
Test in all cases: log2 fold change, soluble protein after heating vs DMSO (PISA); higher = thermal stabilisation; K562 lysate, 10 uM; active = over 0.2 and 3.5 SD of the protein, either way, in both replicates (recomputed)
alvocidib = compound: CN1CC[C@H](c2c(O)cc(O)c3c(=O)cc(-c4ccccc4Cl)oc23)[C@H](O)C1 [alvocidib]
Method in brief: (§1)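 Dounce homogenisation of K562 pellets in PBS pH 7.4 with 1 mM MgCl2 produced a crude extract, used at 1 mg/mL protein. Exposure to 10 μM compound lasted 30 min, and aliquots were then heated for 3 min across 48°C-58°C, pooled and brought to 0.5% NP-40 at 4°C. The supernatant after 21,000xg for 90 min was quantified by TMTpro 16plex LC-MS/MS with channel sums equalised. Duplicate values are given as log-two fold change in thermal stability relative to solvent controls.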

Protein sequences, listed by entry. Tags and fused reporters are not part of them. Lines headed by an entry give the natural chain unless they say otherwise; changes in a name come on top.
UniProt Q9GZZ9, whole entry, looked up: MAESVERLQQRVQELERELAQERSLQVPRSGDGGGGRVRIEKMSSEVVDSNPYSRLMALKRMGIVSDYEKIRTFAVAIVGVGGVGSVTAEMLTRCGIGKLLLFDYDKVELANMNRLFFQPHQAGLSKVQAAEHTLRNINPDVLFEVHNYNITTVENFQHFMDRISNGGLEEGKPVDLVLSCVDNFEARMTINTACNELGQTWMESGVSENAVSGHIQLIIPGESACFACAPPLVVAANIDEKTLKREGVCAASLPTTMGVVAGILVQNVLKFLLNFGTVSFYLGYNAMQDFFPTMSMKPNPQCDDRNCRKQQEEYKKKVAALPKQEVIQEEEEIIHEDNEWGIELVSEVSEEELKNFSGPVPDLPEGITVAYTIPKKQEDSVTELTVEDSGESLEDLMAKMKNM
UniProt Q9NPD8: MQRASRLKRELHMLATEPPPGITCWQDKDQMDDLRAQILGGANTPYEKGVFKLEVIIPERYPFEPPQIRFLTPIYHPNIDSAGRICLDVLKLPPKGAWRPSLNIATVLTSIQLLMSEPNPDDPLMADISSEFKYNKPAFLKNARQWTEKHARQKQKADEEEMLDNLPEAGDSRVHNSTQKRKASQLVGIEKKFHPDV
UniProt Q9BSJ2, whole entry, looked up: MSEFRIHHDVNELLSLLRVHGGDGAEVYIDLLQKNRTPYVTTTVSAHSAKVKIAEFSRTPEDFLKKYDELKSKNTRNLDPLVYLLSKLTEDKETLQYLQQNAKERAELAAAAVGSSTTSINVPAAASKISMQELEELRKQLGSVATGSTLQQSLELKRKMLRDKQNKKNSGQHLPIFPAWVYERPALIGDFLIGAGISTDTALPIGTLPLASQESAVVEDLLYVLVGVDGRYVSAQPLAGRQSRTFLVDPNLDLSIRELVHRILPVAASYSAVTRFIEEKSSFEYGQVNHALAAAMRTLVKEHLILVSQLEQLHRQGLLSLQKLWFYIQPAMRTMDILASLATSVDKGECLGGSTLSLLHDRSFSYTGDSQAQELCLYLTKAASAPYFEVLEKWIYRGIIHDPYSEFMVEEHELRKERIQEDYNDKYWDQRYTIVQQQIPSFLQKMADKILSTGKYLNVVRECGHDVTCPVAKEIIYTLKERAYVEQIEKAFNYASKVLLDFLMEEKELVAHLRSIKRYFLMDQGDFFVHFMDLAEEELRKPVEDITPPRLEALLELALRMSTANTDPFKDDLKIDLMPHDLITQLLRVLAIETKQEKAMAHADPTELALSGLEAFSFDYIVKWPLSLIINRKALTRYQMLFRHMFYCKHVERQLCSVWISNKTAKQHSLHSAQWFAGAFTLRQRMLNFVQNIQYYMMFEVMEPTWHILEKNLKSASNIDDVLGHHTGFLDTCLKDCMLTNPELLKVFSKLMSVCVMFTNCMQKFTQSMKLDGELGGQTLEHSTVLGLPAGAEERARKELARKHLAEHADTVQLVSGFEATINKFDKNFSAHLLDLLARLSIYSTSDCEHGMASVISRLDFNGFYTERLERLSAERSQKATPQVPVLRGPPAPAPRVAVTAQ
UniProt O14933: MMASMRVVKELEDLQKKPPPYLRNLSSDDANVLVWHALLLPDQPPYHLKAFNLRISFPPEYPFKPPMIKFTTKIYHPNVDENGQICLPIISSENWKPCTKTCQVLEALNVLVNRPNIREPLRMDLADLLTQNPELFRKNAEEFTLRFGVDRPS
UniProt P0DPH7, whole entry, looked up: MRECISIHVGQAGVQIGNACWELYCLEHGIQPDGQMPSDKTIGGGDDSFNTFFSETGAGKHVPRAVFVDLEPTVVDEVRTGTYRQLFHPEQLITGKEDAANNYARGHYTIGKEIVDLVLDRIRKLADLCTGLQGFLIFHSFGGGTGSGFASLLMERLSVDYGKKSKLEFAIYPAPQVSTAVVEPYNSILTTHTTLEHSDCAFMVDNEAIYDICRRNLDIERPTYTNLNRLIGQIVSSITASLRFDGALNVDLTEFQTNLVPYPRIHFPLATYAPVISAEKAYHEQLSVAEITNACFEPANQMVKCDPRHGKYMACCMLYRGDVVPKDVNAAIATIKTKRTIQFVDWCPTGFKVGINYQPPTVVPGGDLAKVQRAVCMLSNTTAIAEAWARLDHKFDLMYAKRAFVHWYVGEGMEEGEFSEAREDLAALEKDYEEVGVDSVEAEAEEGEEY
UniProt O95071: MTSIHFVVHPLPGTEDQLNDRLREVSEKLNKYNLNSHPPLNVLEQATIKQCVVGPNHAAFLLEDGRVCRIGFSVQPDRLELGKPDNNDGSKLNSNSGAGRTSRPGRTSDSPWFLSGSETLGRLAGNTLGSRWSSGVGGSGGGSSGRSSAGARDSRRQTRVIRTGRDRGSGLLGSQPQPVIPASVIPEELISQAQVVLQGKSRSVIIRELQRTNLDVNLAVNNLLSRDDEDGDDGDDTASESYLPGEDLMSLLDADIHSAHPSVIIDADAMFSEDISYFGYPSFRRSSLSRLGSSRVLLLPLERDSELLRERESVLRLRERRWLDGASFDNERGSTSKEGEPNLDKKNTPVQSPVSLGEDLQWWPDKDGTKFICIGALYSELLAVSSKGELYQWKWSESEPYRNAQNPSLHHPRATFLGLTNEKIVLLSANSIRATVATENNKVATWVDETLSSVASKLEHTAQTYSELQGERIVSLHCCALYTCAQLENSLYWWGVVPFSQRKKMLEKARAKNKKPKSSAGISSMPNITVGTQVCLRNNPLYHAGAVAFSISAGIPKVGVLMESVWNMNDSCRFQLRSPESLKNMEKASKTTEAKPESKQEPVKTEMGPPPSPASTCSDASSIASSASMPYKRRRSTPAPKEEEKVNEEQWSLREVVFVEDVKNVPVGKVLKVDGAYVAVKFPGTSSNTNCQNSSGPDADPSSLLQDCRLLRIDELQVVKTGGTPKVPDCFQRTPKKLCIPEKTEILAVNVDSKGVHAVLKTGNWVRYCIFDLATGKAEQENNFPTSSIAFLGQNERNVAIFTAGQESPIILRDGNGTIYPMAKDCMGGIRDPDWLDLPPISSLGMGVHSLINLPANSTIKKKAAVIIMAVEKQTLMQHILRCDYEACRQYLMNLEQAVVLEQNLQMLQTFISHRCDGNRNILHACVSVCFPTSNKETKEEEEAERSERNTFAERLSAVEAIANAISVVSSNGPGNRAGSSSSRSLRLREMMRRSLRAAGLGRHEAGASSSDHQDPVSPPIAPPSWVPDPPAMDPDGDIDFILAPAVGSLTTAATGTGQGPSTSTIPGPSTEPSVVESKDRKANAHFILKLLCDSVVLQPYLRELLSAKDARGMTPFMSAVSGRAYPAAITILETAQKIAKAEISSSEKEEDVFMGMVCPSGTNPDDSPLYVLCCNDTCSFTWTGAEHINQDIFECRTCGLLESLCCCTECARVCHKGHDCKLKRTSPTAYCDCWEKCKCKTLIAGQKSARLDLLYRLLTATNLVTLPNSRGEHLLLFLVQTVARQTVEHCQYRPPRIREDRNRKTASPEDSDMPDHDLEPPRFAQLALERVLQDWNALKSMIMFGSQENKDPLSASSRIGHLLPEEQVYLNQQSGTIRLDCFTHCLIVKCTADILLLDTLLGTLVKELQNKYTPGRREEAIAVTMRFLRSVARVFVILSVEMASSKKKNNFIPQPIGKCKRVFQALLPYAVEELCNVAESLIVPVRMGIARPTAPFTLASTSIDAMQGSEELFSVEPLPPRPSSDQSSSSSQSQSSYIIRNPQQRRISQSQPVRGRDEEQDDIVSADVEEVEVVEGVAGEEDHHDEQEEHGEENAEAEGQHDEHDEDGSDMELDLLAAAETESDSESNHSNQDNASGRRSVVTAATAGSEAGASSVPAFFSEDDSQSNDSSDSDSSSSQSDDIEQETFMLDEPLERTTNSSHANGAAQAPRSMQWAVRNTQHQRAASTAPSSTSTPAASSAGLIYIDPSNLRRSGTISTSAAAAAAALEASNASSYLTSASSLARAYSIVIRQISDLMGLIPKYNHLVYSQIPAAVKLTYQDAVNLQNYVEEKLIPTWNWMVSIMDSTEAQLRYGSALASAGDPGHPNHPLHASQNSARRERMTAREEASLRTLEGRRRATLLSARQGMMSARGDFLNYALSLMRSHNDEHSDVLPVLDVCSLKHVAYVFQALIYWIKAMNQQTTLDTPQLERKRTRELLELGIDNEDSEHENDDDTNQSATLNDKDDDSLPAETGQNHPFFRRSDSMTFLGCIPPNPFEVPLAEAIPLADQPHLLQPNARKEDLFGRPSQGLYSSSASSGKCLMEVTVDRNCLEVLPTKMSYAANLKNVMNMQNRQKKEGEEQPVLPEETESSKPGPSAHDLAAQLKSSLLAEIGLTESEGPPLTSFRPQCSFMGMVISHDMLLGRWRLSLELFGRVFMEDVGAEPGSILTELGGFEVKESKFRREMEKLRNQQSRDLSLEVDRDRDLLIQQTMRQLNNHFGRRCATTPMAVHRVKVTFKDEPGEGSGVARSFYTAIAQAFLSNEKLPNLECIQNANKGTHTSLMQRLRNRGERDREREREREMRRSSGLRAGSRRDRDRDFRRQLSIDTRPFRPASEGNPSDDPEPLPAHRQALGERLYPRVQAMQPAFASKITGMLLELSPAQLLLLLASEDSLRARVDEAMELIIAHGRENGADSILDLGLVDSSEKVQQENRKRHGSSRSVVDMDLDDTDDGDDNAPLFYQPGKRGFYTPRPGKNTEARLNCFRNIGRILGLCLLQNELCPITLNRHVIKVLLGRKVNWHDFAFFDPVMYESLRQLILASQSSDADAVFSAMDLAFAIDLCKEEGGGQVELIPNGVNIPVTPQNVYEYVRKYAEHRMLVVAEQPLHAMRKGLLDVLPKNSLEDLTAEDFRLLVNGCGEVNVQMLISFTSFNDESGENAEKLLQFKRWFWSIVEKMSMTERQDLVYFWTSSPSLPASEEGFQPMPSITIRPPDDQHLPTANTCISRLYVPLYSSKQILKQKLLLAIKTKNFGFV
UniProt P23258, whole entry, looked up: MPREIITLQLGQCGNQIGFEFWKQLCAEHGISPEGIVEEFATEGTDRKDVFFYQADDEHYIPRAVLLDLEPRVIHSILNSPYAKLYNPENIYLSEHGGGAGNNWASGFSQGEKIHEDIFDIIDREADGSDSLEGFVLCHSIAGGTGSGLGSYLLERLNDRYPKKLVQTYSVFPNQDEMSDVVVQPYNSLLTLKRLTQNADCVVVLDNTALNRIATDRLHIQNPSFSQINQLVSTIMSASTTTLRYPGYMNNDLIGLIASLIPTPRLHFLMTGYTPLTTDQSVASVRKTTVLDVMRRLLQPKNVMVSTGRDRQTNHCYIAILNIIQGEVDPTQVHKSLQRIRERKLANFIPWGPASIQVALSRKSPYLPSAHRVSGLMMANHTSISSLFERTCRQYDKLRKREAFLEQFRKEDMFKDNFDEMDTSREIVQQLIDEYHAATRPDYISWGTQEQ
UniProt Q04323: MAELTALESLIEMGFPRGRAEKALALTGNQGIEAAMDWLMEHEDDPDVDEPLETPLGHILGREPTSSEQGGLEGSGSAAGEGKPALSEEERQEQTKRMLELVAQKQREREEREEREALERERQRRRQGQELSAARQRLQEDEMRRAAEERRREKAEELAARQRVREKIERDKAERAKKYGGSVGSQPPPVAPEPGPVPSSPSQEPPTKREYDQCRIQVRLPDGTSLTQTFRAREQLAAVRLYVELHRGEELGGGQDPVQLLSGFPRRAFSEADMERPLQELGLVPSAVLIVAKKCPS
UniProt Q712K3: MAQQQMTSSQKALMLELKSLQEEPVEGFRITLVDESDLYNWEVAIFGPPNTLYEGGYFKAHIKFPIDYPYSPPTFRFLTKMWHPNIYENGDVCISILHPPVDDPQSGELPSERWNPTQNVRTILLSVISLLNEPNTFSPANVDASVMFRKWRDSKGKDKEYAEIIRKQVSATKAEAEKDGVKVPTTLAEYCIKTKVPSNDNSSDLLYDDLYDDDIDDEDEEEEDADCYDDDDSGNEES
UniProt Q9H4B7, whole entry, looked up: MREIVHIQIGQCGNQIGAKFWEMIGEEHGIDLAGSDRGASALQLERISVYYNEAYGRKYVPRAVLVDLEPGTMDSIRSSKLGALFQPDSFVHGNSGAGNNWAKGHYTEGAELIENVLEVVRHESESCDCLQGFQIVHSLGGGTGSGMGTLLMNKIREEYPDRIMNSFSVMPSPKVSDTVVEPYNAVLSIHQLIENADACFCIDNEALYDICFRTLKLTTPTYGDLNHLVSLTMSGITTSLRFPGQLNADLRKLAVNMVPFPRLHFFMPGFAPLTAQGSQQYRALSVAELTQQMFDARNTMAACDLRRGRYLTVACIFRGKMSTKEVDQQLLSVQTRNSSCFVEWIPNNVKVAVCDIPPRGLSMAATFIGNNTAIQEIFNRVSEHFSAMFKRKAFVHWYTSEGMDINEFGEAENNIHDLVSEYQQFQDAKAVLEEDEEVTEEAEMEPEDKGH
UniProt O14530: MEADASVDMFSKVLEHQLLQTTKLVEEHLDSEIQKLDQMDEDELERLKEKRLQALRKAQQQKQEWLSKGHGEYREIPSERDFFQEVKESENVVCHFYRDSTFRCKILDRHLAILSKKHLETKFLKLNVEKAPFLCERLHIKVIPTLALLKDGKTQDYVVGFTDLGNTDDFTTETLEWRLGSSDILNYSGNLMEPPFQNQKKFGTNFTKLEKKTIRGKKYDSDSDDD

Tubastatin A = compound: CN1CCc2c(c3ccccc3n2Cc2ccc(C(=O)NO)cc2)C1 [Tubastatin A]
Method in brief: as §1

[1] = compound: CNC(=O)C1=CC=CC=C1NC2=NC(=NC=C2Cl)NC3=C(C=C(C=C3)N4CCOCC4)OC
Method in brief: as §1

defactinib = compound: CNC(=O)c1ccc(Nc2ncc(C(F)(F)F)c(NCc3nccnc3N(C)S(C)(=O)=O)n2)cc1 [defactinib]
Method in brief: as §1

[2] = compound: CNc1nc(-c2ccc3c(N)n[nH]c3c2)cc(N2C[C@@H](C(=O)NC3CCCCC3)CC[C@H]2C)n1
Method in brief: as §1

encorafenib = compound: COC(=O)N[C@@H](C)CNc1nccc(-c2cn(C(C)C)nc2-c2cc(Cl)cc(NS(C)(=O)=O)c2F)n1 [encorafenib]
Method in brief: as §1

[3] = compound: COC(=O)[C@H](CCSC)NC(=O)C1=C(C=C(C=C1)NC[C@H](CS)N)C2=CC=CC=C2
Method in brief: as §1

alisertib = compound: COc1cc(Nc2ncc3c(n2)-c2ccc(Cl)cc2C(c2c(F)cccc2OC)=NC3)ccc1C(=O)O [alisertib]
Method in brief: as §1

[4] = compound: COc1cc2nc(-c3cc(F)ccc3O)nc(N[C@@H]3CNC[C@H]3C(C)(C)O)c2cc1OC
Method in brief: as §1

gefitinib = compound: COc1cc2ncnc(Nc3ccc(F)c(Cl)c3)c2cc1OCCCN1CCOCC1 [gefitinib]
Method in brief: as §1

lapatinib = compound: CS(=O)(=O)CCNCc1ccc(-c2ccc3ncnc(Nc4ccc(OCc5cccc(F)c5)c(Cl)c4)c3c2)o1 [lapatinib]
Method in brief: as §1

pictilisib = compound: CS(=O)(=O)N1CCN(Cc2cc3nc(-c4cccc5[nH]ncc45)nc(N4CCOCC4)c3s2)CC1 [pictilisib]
Method in brief: as §1

crizotinib = compound: C[C@@H](Oc1cc(-c2cnn(C3CCNCC3)c2)cnc1N)c1c(Cl)ccc(F)c1Cl [crizotinib]
Method in brief: as §1

[5] = compound: C[C@H](C1=CC=C(C=C1)C(=O)NC2=C3C=CNC3=NC=C2)N
Method in brief: as §1

duvelisib = compound: C[C@H](Nc1ncnc2nc[nH]c12)c1cc2cccc(Cl)c2c(=O)n1-c1ccccc1 [duvelisib]
Method in brief: as §1

gandotinib = compound: Cc1cc(Nc2cc(CN3CCOCC3)c3nc(C)c(Cc4ccc(Cl)cc4F)n3n2)n[nH]1 [gandotinib]
Method in brief: as §1

tozasertib = compound: Cc1cc(Nc2cc(N3CCN(C)CC3)nc(Sc3ccc(NC(=O)C4CC4)cc3)n2)n[nH]1 [tozasertib]
Method in brief: as §1

doramapimod = compound: Cc1ccc(-n2nc(C(C)(C)C)cc2NC(=O)Nc2ccc(OCCN3CCOCC3)c3ccccc23)cc1 [doramapimod]
Method in brief: as §1

bafetinib = compound: Cc1ccc(NC(=O)c2ccc(CN3CC[C@H](N(C)C)C3)c(C(F)(F)F)c2)cc1Nc1nccc(-c2cncnc2)n1 [bafetinib]
Method in brief: as §1

[6] = compound: Cc1cccc(CC(=O)N2CCc3c2ccc(-c2cn(C)c4ncnc(N)c24)c3F)n1
Method in brief: as §1

Measured: log2 fold change

UBE2J1 (UniProt Q9Y385)
inactive: alvocidib 0.034 | Tubastatin A 0.044 | [1] 0.035 | defactinib -0.046 | [2] 0.022 | encorafenib -0.008 | [3] 0.143 | alisertib -0.06 | [4] 0.05 | gefitinib 0.013 | lapatinib -0.019 | pictilisib 0.011 | crizotinib -0.007 | [5] -0.056 | duvelisib -0.048 | gandotinib -0.03 | tozasertib -0.012 | doramapimod 0.007 | bafetinib 0.004 | [6] -0.013

UBXN6 (UniProt Q9BZV1)
inactive: alvocidib 0.014 | Tubastatin A -0.087 | [1] 0.03 | defactinib -0.019 | [2] 0.055 | encorafenib 0.042 | [3] 0.104 | alisertib 0.017 | [4] 0.006 | gefitinib 0.006 | lapatinib -0.075 | pictilisib -0.048 | crizotinib 0.004 | [5] -0.014 | duvelisib -0.028 | gandotinib -0.018 | tozasertib 0.008 | doramapimod 0.017 | bafetinib 0.033 | [6] -0.023

UBA5 (UniProt Q9GZZ9)
inactive: alvocidib -0.001 | Tubastatin A -0.012 | [1] -0.011 | defactinib 0.024 | [2] -0.05 | encorafenib -0.004 | [3] 0 | alisertib 0.02 | [4] -0.004 | gefitinib 0.052 | lapatinib -0.017 | pictilisib -0.017 | crizotinib -0.02 | [5] -0.012 | duvelisib 0.038 | gandotinib -0.023 | tozasertib -0.065 | doramapimod 0.048 | bafetinib 0.01 | [6] -0.008

TUT7 (UniProt Q5VYS8)
inactive: alvocidib 0.063 | Tubastatin A 0.03 | [1] 0.032 | defactinib 0.111 | [2] 0.016 | encorafenib -0.032 | [3] 0.06 | alisertib -0.025 | [4] 0.108 | gefitinib 0.019 | lapatinib -0.002 | pictilisib -0.003 | crizotinib 0.045 | [5] 0.135 | duvelisib -0.034 | gandotinib -0.158 | tozasertib -0.035 | doramapimod -0.082 | bafetinib -0.128 | [6] -0.03

UBE2T (UniProt Q9NPD8)
inactive: alvocidib -0.01 | Tubastatin A 0.003 | [1] 0.018 | defactinib -0.036 | [2] 0.024 | encorafenib -0.003 | [3] -0.061 | alisertib 0 | [4] 0.002 | gefitinib -0.028 | lapatinib -0.041 | pictilisib -0.042 | crizotinib -0.015 | [5] -0.086 | duvelisib -0.037 | gandotinib 0.017 | tozasertib 0.019 | doramapimod 0.024 | bafetinib -0.05 | [6] 0.011

TUBGCP2 isoform 4 (UniProt Q9BSJ2)
inactive: alvocidib -0.007 | Tubastatin A -0.008 | [1] 0.053 | defactinib 0.032 | [2] 0.003 | encorafenib 0.045 | [3] -0.026 | alisertib 0.021 | [4] 0.017 | gefitinib -0.018 | lapatinib -0.008 | pictilisib -0.029 | crizotinib -0.119 | [5] 0.08 | duvelisib -0.001 | gandotinib -0.087 | tozasertib 0.002 | doramapimod 0.033 | bafetinib 0.002 | [6] 0.009

UBE2L6 (UniProt O14933)
inactive: alvocidib 0.034 | Tubastatin A -0.051 | [1] 0.082 | defactinib 0.065 | [2] -0.005 | encorafenib 0.06 | alisertib 0.004 | [4] -0.026 | gefitinib 0.092 | lapatinib 0.059 | pictilisib 0.062 | crizotinib -0.014 | [5] 0.088 | duvelisib 0.033 | gandotinib -0.105 | tozasertib 0.109 | doramapimod -0.013 | bafetinib -0.267 | [6] -0.024
active: [3] -0.36

TUBA3C (UniProt P0DPH7)
inactive: alvocidib -0.012 | Tubastatin A -0.15 | [1] 0.01 | defactinib -0.013 | [2] -0.018 | encorafenib -0.037 | [3] 0.042 | alisertib -0.023 | [4] -0.035 | gefitinib -0.005 | lapatinib 0.038 | pictilisib -0.003 | crizotinib -0.078 | [5] 0.009 | duvelisib 0.03 | gandotinib 0.072 | tozasertib 0.055 | doramapimod 0.014 | bafetinib 0.012 | [6] 0.023

UBR5 (UniProt O95071)
inactive: alvocidib -0.011 | Tubastatin A -0.084 | [1] 0.002 | defactinib 0.016 | [2] 0 | encorafenib 0.025 | [3] -0.044 | alisertib -0.028 | [4] -0.005 | gefitinib 0.014 | lapatinib -0.003 | pictilisib -0.009 | crizotinib -0.055 | [5] -0.01 | duvelisib -0.004 | gandotinib -0.018 | tozasertib 0.001 | doramapimod 0.012 | bafetinib -0.047 | [6] 0.046

TUBG1 (UniProt P23258)
inactive: alvocidib 0.033 | Tubastatin A -0.065 | [1] 0.035 | defactinib 0.042 | [2] -0.032 | encorafenib -0.019 | [3] 0.039 | alisertib 0.017 | [4] 0.009 | gefitinib 0.019 | lapatinib -0.022 | pictilisib -0.043 | crizotinib -0.024 | [5] -0.017 | duvelisib -0.021 | gandotinib -0.044 | tozasertib -0.025 | doramapimod 0.017 | bafetinib -0.01 | [6] 0.032

UBXN1 (UniProt Q04323)
inactive: alvocidib -0.043 | Tubastatin A 0.016 | [1] 0.01 | defactinib 0.003 | [2] -0.011 | encorafenib 0.019 | [3] -0.092 | alisertib 0.018 | [4] 0.01 | gefitinib 0.053 | lapatinib 0.013 | pictilisib 0.003 | crizotinib -0.03 | [5] -0.049 | duvelisib 0.011 | gandotinib 0.024 | tozasertib -0.006 | doramapimod 0.045 | bafetinib -0.013 | [6] 0.018

UBE3C (UniProt Q15386)
inactive: alvocidib 0 | Tubastatin A -0.084 | [1] 0.023 | defactinib 0.033 | [2] 0.024 | encorafenib 0.076 | [3] -0.145 | alisertib 0.022 | [4] 0 | gefitinib -0.026 | lapatinib -0.004 | pictilisib -0.029 | crizotinib -0.055 | [5] -0.039 | duvelisib 0.007 | gandotinib -0.075 | tozasertib 0 | doramapimod 0.038 | bafetinib -0.036 | [6] 0.021

U2AF2 (UniProt P26368)
inactive: alvocidib -0.188 | Tubastatin A 0.044 | [1] -0.063 | defactinib -0.093 | [2] -0.01 | encorafenib -0.002 | [3] -0.054 | alisertib 0.006 | [4] -0.027 | gefitinib -0.034 | lapatinib 0.015 | pictilisib -0.012 | crizotinib 0.009 | [5] -0.056 | duvelisib 0.008 | gandotinib -0.118 | tozasertib 0.005 | doramapimod 0.005 | bafetinib -0.044 | [6] 0.045

UBE2R2 (UniProt Q712K3)
inactive: alvocidib 0.048 | Tubastatin A 0.006 | [1] -0.011 | defactinib -0.001 | [2] -0.003 | encorafenib -0.032 | [3] -0.043 | alisertib 0 | [4] -0.008 | gefitinib 0.028 | lapatinib 0 | pictilisib -0.03 | crizotinib 0.005 | [5] 0.01 | duvelisib 0.005 | gandotinib 0 | tozasertib 0.026 | doramapimod 0.037 | bafetinib 0.006 | [6] -0.024

TUBB1 (UniProt Q9H4B7)
inactive: alvocidib 0.026 | Tubastatin A -0.059 | [1] 0.021 | defactinib 0.07 | [2] -0.005 | encorafenib -0.015 | [3] 0.071 | alisertib -0.013 | [4] -0.034 | gefitinib -0.047 | lapatinib -0.006 | pictilisib -0.007 | crizotinib -0.025 | [5] 0.093 | duvelisib -0.01 | gandotinib -0.015 | tozasertib -0.027 | doramapimod -0.046 | bafetinib 0.036 | [6] -0.06

TXNDC9 (UniProt O14530)
inactive: alvocidib -0.04 | Tubastatin A 0.033 | [1] 0.026 | defactinib -0.016 | [2] 0.02 | encorafenib -0.011 | [3] -0.039 | alisertib -0.019 | [4] -0.022 | gefitinib -0.004 | lapatinib -0.025 | pictilisib 0.039 | crizotinib 0.028 | [5] -0.164 | duvelisib 0.008 | gandotinib 0.064 | tozasertib -0.026 | doramapimod -0.044 | bafetinib -0.033 | [6] 0.074

Two consecutive entries from above, quoted:
TUBB1 (UniProt Q9H4B7)
inactive: alvocidib 0.026 | Tubastatin A -0.059 | [1] 0.021 | defactinib 0.07 | [2] -0.005 | encorafenib -0.015 | [3] 0.071 | alisertib -0.013 | [4] -0.034 | gefitinib -0.047 | lapatinib -0.006 | pictilisib -0.007 | crizotinib -0.025 | [5] 0.093 | duvelisib -0.01 | gandotinib -0.015 | tozasertib -0.027 | doramapimod -0.046 | bafetinib 0.036 | [6] -0.06

TXNDC9 (UniProt O14530)
inactive: alvocidib -0.04 | Tubastatin A 0.033 | [1] 0.026 | defactinib -0.016 | [2] 0.02 | encorafenib -0.011 | [3] -0.039 | alisertib -0.019 | [4] -0.022 | gefitinib -0.004 | lapatinib -0.025 | pictilisib 0.039 | crizotinib 0.028 | [5] -0.164 | duvelisib 0.008 | gandotinib 0.064 | tozasertib -0.026 | doramapimod -0.044 | bafetinib -0.033 | [6] 0.074

From the supplement of paper PMC10849652
